Data taken from PMC11525750.
These are yes or no findings as the source states them, for the method shown. For some of these results: In cells and extracts the contact can be indirect. Some entries that bind do so weakly or less than the wild type.

The chains behind the UniProt entries cited, without tags or fusion partners. Where a name states a change or a piece, a line headed by the entry shows the natural chain unless it says otherwise. A line that says so, or that is headed by a name, gives the form on record, which may keep a tag or linker.
UniProt Q8NCD3: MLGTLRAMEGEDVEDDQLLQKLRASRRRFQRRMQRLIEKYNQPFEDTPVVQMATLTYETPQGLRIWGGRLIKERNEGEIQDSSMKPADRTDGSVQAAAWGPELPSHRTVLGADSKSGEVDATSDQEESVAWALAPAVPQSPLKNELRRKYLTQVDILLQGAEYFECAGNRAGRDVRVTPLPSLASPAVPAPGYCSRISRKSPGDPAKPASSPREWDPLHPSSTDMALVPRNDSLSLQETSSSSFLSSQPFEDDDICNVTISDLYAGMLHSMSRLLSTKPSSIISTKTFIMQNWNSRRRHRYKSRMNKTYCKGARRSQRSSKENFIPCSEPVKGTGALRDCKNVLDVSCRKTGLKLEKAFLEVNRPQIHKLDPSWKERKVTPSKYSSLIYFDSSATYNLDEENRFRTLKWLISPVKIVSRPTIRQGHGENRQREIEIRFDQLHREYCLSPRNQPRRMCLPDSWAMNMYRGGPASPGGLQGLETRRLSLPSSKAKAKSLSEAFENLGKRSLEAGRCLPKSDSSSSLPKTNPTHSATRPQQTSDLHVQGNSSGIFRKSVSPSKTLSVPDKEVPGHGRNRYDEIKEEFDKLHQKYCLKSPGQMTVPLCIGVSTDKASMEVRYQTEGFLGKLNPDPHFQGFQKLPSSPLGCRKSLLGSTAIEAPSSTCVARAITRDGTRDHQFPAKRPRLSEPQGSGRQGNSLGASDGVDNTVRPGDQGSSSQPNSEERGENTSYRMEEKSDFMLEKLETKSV
SBP-HJURP with mutations in both Cys327 and Cys457 (Q8NCD3, form named): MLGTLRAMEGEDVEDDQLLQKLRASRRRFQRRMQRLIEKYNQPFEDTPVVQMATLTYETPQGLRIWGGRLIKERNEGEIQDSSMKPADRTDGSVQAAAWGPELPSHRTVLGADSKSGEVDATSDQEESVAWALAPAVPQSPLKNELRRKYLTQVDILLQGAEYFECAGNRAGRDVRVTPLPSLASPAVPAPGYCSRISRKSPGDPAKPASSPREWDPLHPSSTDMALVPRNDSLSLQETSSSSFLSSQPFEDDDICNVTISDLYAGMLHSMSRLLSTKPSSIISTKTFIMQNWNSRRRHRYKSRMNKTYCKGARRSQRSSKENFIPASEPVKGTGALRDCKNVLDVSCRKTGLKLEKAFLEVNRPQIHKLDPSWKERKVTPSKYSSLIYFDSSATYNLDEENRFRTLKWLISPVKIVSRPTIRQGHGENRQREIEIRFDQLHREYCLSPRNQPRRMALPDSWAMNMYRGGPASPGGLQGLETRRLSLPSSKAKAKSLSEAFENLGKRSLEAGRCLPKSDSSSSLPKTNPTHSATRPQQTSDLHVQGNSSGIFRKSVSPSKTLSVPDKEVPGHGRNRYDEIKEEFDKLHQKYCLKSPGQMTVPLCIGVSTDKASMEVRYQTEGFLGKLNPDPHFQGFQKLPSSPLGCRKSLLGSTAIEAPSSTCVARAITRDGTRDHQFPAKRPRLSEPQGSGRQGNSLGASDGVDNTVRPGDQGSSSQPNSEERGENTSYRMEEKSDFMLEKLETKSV

Legend:
[1] = target: Holliday junction recognition protein (HJURP) (human (endogenous in C4-2 and PC3)) (UniProt Q8NCD3); assay: co-IP; endogenous proteins in C4-2 and PC3 lysates, primary antibody 4 h at 4 °C, protein-A/G beads overnight, western blotting
[2] = target: peroxiredoxin 1 (PRDX1) (human (endogenous in C4-2 and PC3)) (UniProt Q06830); assay: non-reducing immunoblotting; C4-2 and PC3 cells (HJURP knockout or rescued), free thiols blocked with 20 mM MMTS, lysate in loading buffer without reducing agents, SDS-PAGE; disulfide-linked PRDX1 dimer
[3] = target: SBP-HJURP (UniProt Q8NCD3); assay: pull-down; SBP-tagged protein transfected into C4-2 or PC3 cells, H2O2 for 2 min, free thiols blocked with 20 mM MMTS, lysate on SA-Sepharose beads, washes with 1 % Triton X-100 and 1 M urea, elution with biotin, non-reducing immunoblotting (disulfide-linked conjugates)
[4] = target: SBP-HJURP with mutations in both Cys327 and Cys457 (UniProt Q8NCD3); assay: as above

binding [1]: binds
binding [2]: binds
binding [3]: binds
binding [4]: no binding
B1: peroxiredoxin 1 (PRDX1) (enzyme, UniProt Q06830 1-199)
chain: MSSGNAKIGHPAPNFKATAVMPDGQFKDISLSDYKGKYVVFFFYPLDFTFVCPTEIIAFSDRAEEFKKLNCQVIGASVDSHFCHLAWVNTPKKQGGLGPMNIPLVSDPKRTIAQDYGVLKADEGISFRGLFIIDDKGILRQITVNDLPVGRSVDETLRLVQAFQFTDKHGEVCPAGWKPGSDTIKPDVQKSKEYFSKQK
